Test results as given in article PMC5301975.
These are yes or no findings as the source states them, for the method shown. Binding seen in cells or lysates may run through a third protein. A yes stands for co-enrichment or nearness to the bait. Other partners may have been found. A no says only that the protein was not detected with the bait.

By UniProt entry, the sequences of proteins in these tests, tags left out. Where a name states a change or a piece, a line headed by the entry shows the natural chain unless it says otherwise. Chains listed by the source or under a name are the forms on record and can include a tag or linker. Residues count along the entry.
Synaptotagmin I C2A domain GST fusion protein (P21707, residues 140-265): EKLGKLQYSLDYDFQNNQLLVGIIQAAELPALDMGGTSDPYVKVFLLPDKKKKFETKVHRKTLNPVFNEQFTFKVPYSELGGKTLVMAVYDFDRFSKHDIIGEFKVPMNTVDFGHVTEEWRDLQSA
Synaptotagmin I C2B domain GST fusion protein (P21707, residues 271-421): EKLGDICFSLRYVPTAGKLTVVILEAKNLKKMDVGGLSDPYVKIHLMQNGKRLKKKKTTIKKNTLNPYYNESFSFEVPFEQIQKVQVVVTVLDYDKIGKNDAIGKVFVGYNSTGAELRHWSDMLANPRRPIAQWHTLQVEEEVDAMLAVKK
UniProt P18484: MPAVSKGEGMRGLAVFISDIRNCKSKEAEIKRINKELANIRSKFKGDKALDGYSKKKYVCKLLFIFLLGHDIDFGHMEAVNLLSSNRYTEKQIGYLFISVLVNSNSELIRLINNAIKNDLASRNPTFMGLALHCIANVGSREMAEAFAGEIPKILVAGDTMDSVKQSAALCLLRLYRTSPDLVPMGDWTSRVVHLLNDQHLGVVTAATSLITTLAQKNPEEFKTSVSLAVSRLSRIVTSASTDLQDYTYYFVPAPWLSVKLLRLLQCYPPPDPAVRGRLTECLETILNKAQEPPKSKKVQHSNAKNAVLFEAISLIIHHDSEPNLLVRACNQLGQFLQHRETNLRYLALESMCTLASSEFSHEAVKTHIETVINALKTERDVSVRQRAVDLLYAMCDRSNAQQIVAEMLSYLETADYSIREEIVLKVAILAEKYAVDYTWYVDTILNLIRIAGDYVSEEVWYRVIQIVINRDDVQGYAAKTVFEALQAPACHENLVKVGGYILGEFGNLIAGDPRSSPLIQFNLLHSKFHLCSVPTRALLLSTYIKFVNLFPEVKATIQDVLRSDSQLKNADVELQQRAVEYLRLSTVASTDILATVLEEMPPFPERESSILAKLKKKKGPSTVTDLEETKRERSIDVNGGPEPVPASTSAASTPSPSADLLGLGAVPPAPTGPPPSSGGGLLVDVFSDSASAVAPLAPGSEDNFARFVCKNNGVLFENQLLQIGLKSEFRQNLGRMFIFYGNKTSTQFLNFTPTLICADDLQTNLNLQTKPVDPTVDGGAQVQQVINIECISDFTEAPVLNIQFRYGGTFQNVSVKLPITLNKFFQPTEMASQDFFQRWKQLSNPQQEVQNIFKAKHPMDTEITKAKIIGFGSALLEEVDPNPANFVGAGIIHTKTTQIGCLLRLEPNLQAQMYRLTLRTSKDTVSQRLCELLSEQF
UniProt P84092: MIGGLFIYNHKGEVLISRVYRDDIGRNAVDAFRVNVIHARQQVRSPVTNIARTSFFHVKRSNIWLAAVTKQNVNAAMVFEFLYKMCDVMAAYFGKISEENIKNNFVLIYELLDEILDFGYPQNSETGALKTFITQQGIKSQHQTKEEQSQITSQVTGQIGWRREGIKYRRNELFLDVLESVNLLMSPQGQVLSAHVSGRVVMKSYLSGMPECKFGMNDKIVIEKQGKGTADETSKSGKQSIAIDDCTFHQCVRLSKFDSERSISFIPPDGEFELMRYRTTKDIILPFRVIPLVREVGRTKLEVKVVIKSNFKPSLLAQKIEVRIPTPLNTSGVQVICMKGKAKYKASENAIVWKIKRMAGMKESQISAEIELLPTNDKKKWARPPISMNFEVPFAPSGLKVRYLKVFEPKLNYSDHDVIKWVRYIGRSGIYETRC
UniProt P11275: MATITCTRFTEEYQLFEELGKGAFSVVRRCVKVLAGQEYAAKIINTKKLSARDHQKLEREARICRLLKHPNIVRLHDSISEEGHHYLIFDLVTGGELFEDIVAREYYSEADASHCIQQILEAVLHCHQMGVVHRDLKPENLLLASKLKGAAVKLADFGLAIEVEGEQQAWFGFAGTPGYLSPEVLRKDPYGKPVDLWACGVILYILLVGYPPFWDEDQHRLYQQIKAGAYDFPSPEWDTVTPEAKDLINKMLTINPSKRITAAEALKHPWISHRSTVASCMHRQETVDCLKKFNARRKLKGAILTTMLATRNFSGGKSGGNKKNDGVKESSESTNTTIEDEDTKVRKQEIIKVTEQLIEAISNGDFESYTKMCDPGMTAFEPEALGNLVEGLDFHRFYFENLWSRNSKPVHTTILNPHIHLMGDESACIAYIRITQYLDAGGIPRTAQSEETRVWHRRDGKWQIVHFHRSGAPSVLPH
UniProt P09606: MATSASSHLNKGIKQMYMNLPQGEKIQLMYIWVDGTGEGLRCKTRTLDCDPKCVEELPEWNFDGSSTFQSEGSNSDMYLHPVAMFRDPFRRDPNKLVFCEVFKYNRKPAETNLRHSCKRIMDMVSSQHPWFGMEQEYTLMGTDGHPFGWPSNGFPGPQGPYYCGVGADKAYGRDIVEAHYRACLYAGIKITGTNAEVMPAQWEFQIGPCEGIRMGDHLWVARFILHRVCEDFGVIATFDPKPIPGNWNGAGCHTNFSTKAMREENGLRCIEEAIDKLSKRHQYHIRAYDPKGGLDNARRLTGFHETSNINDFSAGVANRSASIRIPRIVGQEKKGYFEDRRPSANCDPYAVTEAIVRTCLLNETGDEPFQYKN
UniProt P61265: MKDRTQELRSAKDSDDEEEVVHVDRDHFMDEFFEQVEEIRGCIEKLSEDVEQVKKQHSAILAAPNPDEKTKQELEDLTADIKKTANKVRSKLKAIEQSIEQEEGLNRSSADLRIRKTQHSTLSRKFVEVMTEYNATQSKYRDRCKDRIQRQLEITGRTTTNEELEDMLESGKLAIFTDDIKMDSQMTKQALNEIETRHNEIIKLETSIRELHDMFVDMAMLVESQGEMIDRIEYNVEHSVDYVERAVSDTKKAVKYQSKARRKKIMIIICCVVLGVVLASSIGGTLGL
UniProt Q9QYF3: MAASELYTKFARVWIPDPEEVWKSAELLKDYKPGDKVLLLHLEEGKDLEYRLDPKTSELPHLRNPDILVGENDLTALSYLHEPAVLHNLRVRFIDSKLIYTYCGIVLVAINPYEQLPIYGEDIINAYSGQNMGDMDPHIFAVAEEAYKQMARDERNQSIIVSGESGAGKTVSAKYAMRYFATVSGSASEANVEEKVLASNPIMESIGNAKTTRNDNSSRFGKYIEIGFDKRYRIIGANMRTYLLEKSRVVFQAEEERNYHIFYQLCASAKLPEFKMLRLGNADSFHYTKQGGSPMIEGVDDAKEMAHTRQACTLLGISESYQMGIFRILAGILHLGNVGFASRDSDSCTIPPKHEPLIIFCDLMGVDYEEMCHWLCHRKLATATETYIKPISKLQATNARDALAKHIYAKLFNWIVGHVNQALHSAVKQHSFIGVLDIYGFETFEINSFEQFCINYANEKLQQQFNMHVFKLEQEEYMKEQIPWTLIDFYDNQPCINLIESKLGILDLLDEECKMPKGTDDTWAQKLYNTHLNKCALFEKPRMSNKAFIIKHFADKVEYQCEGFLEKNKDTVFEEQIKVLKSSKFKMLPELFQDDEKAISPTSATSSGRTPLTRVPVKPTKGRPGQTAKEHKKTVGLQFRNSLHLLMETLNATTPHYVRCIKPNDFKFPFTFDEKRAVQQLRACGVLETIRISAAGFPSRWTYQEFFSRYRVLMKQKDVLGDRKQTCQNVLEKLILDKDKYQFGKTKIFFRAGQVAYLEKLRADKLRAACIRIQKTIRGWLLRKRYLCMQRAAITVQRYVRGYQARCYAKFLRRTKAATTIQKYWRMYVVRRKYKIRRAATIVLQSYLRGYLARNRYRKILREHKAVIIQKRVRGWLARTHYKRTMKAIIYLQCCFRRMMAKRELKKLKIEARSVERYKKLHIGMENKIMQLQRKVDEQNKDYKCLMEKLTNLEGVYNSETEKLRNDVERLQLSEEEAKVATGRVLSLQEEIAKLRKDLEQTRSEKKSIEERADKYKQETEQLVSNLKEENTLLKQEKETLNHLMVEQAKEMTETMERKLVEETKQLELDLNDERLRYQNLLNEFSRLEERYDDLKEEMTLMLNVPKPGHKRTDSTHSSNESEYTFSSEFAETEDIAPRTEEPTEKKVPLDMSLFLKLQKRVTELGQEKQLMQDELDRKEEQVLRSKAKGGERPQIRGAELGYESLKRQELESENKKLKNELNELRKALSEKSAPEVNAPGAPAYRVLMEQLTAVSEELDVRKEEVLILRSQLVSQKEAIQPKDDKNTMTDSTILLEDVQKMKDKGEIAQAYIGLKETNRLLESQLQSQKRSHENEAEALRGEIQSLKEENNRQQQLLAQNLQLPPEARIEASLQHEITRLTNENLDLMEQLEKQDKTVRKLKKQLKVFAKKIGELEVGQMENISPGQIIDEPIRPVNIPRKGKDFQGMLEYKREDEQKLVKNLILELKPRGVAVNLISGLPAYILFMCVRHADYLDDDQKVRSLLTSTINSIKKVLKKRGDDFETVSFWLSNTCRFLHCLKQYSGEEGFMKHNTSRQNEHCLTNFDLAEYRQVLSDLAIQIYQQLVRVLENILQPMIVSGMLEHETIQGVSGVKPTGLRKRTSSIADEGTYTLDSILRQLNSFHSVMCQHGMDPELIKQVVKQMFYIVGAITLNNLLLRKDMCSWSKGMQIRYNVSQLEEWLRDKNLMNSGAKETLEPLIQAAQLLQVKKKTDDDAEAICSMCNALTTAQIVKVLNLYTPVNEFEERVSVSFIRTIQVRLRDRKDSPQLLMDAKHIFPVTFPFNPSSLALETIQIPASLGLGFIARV
UniProt Q9QUL6: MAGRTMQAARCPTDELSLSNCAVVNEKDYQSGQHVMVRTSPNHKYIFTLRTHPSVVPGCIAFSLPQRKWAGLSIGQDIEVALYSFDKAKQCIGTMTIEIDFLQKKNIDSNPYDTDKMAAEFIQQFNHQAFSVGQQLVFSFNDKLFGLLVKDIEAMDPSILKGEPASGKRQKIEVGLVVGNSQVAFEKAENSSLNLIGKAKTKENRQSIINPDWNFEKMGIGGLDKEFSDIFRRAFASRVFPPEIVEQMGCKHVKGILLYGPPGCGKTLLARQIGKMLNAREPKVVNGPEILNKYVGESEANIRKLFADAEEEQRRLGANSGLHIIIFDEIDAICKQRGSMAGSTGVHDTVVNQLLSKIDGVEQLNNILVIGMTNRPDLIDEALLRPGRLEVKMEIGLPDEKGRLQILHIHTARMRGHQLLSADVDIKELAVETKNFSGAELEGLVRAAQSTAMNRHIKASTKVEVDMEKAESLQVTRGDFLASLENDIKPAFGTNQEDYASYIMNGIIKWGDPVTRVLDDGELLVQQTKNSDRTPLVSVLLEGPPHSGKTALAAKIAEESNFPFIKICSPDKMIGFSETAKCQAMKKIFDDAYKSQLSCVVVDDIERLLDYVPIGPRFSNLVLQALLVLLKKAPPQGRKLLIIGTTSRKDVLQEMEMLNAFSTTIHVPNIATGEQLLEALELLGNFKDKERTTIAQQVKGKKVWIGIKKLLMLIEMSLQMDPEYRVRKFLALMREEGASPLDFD

B1: SH3-containing GRB2-like protein 3-interacting protein 1 (protein, UniProt P0DJJ3 1-827)
chain: MMEGLKKRTRKAFGIRKKEKDTDSTGSPDRDGMQPSPHEPPYHSKAECAREGGKKASKKSNGAPNGFYAEIDWERYNSPELDEEGYSIRPEEPGSTKGKHFYSSSESEEEEESHKKFNIKIKPLQSKDVLKNAATVDELKASIGNIALSPSPVRKSPRRSPGAIKRNLSSEEVARPRRSTPTPELTSKKPLDDTLALAPLFGPPLESAFDEQKTEVLLDQPEIWGSGQPINPSMESPKLARPFPTGTPPPLPPKAVPATPPRTGSPLTVATGNDQAATEAKIEKLPSISDLDSIFGPVLSPKSVAVNTEEKWVHFSDASPEHVTPELTPREKVVTPPAASDIPADSPAPGPPGPPGSAGPPGPPGPRHVPSPLNLEEVQKKVAEQTFIKDDYLETLSSPKECGLGQRATPPPPPPPTYRTVVSSPGPGSGSGTGTASGASSPARPATPLVPCSSTTPPPPPPRPPSRPKLPPGKPGVGDVSRPFSPPIHSSSPPPIAPLARAESTSSISSTNSLSAATTPTVENEQPSLVWFDRGKFYLTFEGSSRGPSPLTMGAQDTLPVAAAFTETVNAYFKGADPSKCIVKITGEMVLSFPAGITRHFANNPSPAALTFRVINSSRLEHVLPNPQLLCCDNTQNDANTKEFWVNMPNLMTHLKKVSEQKPQATYYNVDMLKYQVSAQGIQSTPLNLAVNWRCEPGSTDLRIDYKYNTDAMTTAVALNNVQFLVPIDGGVTKLQAVLPPAVWNAEQQRILWKIPDISQKSENGGVGSLLARFQLSEGPSKPSPLVVQFTSEGSTLSGCDIELVGAGYRFSLIKKRFAAGKYLADN
B2: Excitatory amino acid transporter 1 (protein, UniProt P24942 1-543)
chain: MTKSNGEEPRMGSRMERFQQGVRKRTLLAKKKVQNITKEDVKSYLFRNAFVLLTVSAVIVGTILGFALRPYKMSYREVKYFSFPGELLMRMLQMLVLPLIISSLVTGMAALDSKASGKMGMRAVVYYMTTTIIAVVIGIIIVIIIHPGKGTKENMYREGKIVQVTAADAFLDLIRNMFPPNLVEACFKQFKTSYEKRSFKVPIQANETLLGAVINNVSEAMETLTRIREEMVPVPGSVNGVNALGLVVFSMCFGFVIGNMKEQGQALREFFDSLNEAIMRLVAVIMWYAPLGILFLIAGKILEMEDMGVIGGQLAMYTVTVIVGLLIHAVIVLPLLYFLVTRKNPWVFIGGLLQALITALGTSSSSATLPITFKCLEENNGVDKRITRFVLPVGATINMDGTALYEALAAIFIAQVNNFDLNFGQIITISITATAASIGAAGIPQAGLVTMVIVLTSVGLPTDDITLIIAVDWFLDRLRTTTNVLGDSLGAGIVEHLSRHELKNRDVEMGNSVIEENEMKKPYQLIAQDNEPEKPVADSETKM

Experiments:
[1] = biological target: Synaptotagmin I C2B domain GST fusion protein (rat) (UniProt P21707); experiment: affinity purification with mass spectrometry; GST-C2A or GST-C2B bound to glutathione-sepharose beads; rat brain extract (10 mM Hepes-NaOH, 150 mM NaCl, pH 7.4) precleared with bead-bound GST; incubated overnight at 4 °C; washed with RIPA buffer containing 150 mM and 300 mM NaCl; eluted by boiling in SDS loading buffer; SDS-PAGE, in-gel digestion, CapLC-MS/MS; in triplicate; only the target purified
[2] = biological target: Synaptotagmin I C2A domain GST fusion protein (rat) (UniProt P21707); experiment: as above

| Molecule | binding [1] | binding [2] |
| --- | --- | --- |
| AP-2 complex subunit alpha-2 (from UniProt P18484 1-938) | binds | no binding |
| AP-2 complex subunit mu (from UniProt P84092 1-435) | binds | no binding |
| Calcium/calmodulin-dependent Protein kinase type II subunit alpha (from UniProt P11275 1-478) | binds | binds |
| Glutamine synthetase (from UniProt P09606 1-373) | binds | binds |
| Protein kinase C gamma type (from UniProt P63319 1-697) | binds | no binding |
| Protein piccolo (from UniProt Q9JKS6 1-5085) | no binding | binds |
| Syntaxin-1B (from UniProt P61265 1-288) | binds | no binding |
| Unconventional myosin-Va (from UniProt Q9QYF3 1-1828) | binds | no binding |
| Vesicle-fusing ATPase (from UniProt Q9QUL6 1-744) | binds | no binding |
| Voltage-dependent N-type calcium channel subunit alpha-1B (from UniProt Q02294 1-2336) | binds | binds |
| B1 | no binding | binds |
| B2 | binds | no binding |
